Experimental findings from patent publication US4315010A, “Glaucine phosphate salts” (priority 1979, dated 1982) are described below.

This series in a line: Palatability of 0.2 percent aqueous salt solutions touched to the tongue. Particulars: 0.2 percent (weight by volume) solutions in distilled water, d,l-glaucine salts; listed as d,l-Glaucine phosphate (2:3).

For `COc1cc2c(cc1OC)-c1c(OC)c(OC)cc3c1C(C2)N(C)CC3` (racemic) [d,l-glaucine phosphate, d,l-Glaucine Phosphate], the palatability result was “lack the sharp, metallic flavor and to be unobjectionable”.
